Values from PubChem BioAssay AID686938 (Drosophila RNAi Screening Center, 2013)
In all, the deposit lists about 23,000 reagents; shown is an unselected part of those that have a named target and a result. In the full data, 75 (0.33%) were called active. 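Raw plate signals without normalisation; calls rest on plate z-scores that were not deposited; ratio present for only 364 wells.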 The numbers tell different reagents against one gene apart. A plus sign joins genes that one reagent is predicted to hit. Not stated in the record: the dose of the treatment.

Assay: 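Fly genes required for calcium entry once internal stores are emptied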 (primary screen)
Cell system: Drosophila S2R+ cells
Reagent: long dsRNA against Drosophila genes, about 0.25 µg dsRNA per well, roughly 10,000 cells
Duration: 5 days of knock-down before the calcium assay
Challenge: thapsigargin (SERCA pump blocker) to empty calcium stores; entry signal taken 4 min after adding it
Measurement: 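Per-well fluo-4 fluorescence in two replicates, unnormalised, measured in resting cells and 4 min after store depletion by the SERCA blocker thapsigargin; ratio of the two present in few wells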
Direction: calcium entry signal: higher = stronger calcium signal after store depletion; resting calcium signal: higher = higher resting calcium signal
Active means: 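Called when the plate z-score of the entry-to-rest ratio, mean of duplicates, falls below −3; wells with low overall dye signal (Fmax z below −2) or more than five off-targets excluded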
Calls: active = strongly reduced calcium entry; inactive = no strong reduction

gene,reagent,"calcium entry signal, replicate 1 (fluorescence units)","calcium entry signal, replicate 2 (fluorescence units)","resting calcium signal, replicate 1 (fluorescence units)","resting calcium signal, replicate 2 (fluorescence units)",Call
CG9593 (GeneID 41912),1,2.81e7,5.87e7,1.43e7,6.30e7,inactive
CG30378 (GeneID 246577),1,3.24e7,5.87e7,1.60e7,2.37e7,inactive
Jhbp5 (GeneID 41949),1,2.92e7,5.42e7,1.44e7,7.51e7,inactive
CG6843 (GeneID 40062),1,1.86e7,3.48e7,1.06e7,1.61e7,inactive
Tektin-A (GeneID 34934),1,4.56e7,,2.31e7,,inactive
Jhbp11 (GeneID 43263),1,3.63e7,4.66e7,1.66e7,1.84e7,inactive
CG6415 (GeneID 34474),1,4.44e7,,2.05e7,,inactive
CG12541 (GeneID 31650),1,3.61e7,3.06e7,1.58e7,1.44e7,inactive
CG12541 (GeneID 31650),2,3.21e7,3.69e7,1.54e7,1.78e7,inactive
Gr39b (GeneID 117347),1,2.02e7,3.72e7,1.09e7,1.81e7,inactive
fon (GeneID 35211),1,4.48e7,,2.27e7,,inactive
Dci (GeneID 38100),1,4.37e7,3.56e7,2.54e7,1.66e7,inactive
CG5866 (GeneID 42097),1,3.69e7,5.95e7,1.95e7,7.06e7,inactive
CG12817 + CG12420,1,3.53e7,4.48e7,1.59e7,2.33e7,inactive
btd (GeneID 31912),1,4.04e7,4.72e7,2.01e7,2.23e7,inactive
Torsin (GeneID 31399),1,2.99e7,4.53e7,1.83e7,2.46e7,inactive
rn (GeneID 40879),1,4.57e7,3.59e7,2.46e7,1.87e7,inactive
rn (GeneID 40879),2,4.81e7,4.36e7,2.31e7,2.08e7,inactive
rn (GeneID 40879),3,3.98e7,3.99e7,2.05e7,1.88e7,inactive
rn (GeneID 40879),4,4.68e7,3.49e7,2.08e7,1.64e7,inactive
rn (GeneID 40879),5,3.27e7,4.70e7,1.61e7,2.20e7,inactive
CG5021 (GeneID 39025),1,3.30e7,4.65e7,1.64e7,2.06e7,inactive
CG6295 (GeneID 43247),1,2.87e7,4.61e7,1.44e7,1.97e7,inactive
Gfrl (GeneID 3346162),1,3.77e7,4.18e7,4.54e7,1.86e7,inactive
Gfrl (GeneID 3346162),2,4.03e7,3.73e7,2.07e7,1.74e7,inactive
Gfrl (GeneID 3346162),3,4.05e7,4.14e7,4.58e7,1.88e7,inactive
Gfrl (GeneID 3346162),4,3.95e7,3.60e7,2.07e7,1.65e7,inactive
Gfrl (GeneID 3346162),5,3.49e7,4.16e7,4.45e7,1.76e7,inactive
CG14252 (GeneID 43238),1,2.96e7,5.20e7,1.64e7,2.24e7,inactive
Hsp60A (GeneID 32045),1,1.89e7,2.27e7,9.69e6,1.10e7,inactive
RpS12 (GeneID 39480),1,1.49e7,1.39e7,1.20e7,7.97e6,inactive
CG13445 (GeneID 39719),1,3.52e7,4.45e7,1.81e7,1.96e7,inactive
CG12825 (GeneID 35726),1,2.84e7,4.12e7,1.40e7,1.91e7,inactive
CG14851 (GeneID 41763),1,2.73e7,3.59e7,1.25e7,4.84e7,inactive
CG14851 (GeneID 41763),2,2.68e7,4.08e7,1.53e7,1.77e7,inactive
CG5359 (GeneID 41222),1,2.15e7,2.59e7,1.37e7,1.34e7,inactive
CG14185 (GeneID 40197),1,3.05e7,4.69e7,1.54e7,1.98e7,inactive
wdn (GeneID 43398),1,3.80e7,4.18e7,1.86e7,1.94e7,inactive

Continued, starting with the last 7 of the part before.
gene,reagent,"calcium entry signal, replicate 1 (fluorescence units)","calcium entry signal, replicate 2 (fluorescence units)","resting calcium signal, replicate 1 (fluorescence units)","resting calcium signal, replicate 2 (fluorescence units)",Call
CG13445 (GeneID 39719),1,3.52e7,4.45e7,1.81e7,1.96e7,inactive
CG12825 (GeneID 35726),1,2.84e7,4.12e7,1.40e7,1.91e7,inactive
CG14851 (GeneID 41763),1,2.73e7,3.59e7,1.25e7,4.84e7,inactive
CG14851 (GeneID 41763),2,2.68e7,4.08e7,1.53e7,1.77e7,inactive
CG5359 (GeneID 41222),1,2.15e7,2.59e7,1.37e7,1.34e7,inactive
CG14185 (GeneID 40197),1,3.05e7,4.69e7,1.54e7,1.98e7,inactive
wdn (GeneID 43398),1,3.80e7,4.18e7,1.86e7,1.94e7,inactive
CG12898 (GeneID 36096),1,3.83e7,3.61e7,1.73e7,1.44e7,inactive
Yif1 (GeneID 43217),1,2.77e7,3.80e7,1.48e7,1.50e7,inactive
CG15814 (GeneID 32765),1,2.82e7,2.96e7,1.43e7,1.47e7,inactive
NT1 (GeneID 38558),1,2.26e7,3.19e7,1.10e7,1.36e7,inactive
NT1 (GeneID 38558),2,4.44e7,3.30e7,2.19e7,1.47e7,inactive
CG3106 (GeneID 31909),1,3.24e7,4.41e7,1.44e7,1.83e7,inactive
Fkbp12 (GeneID 37214),1,4.93e7,4.56e7,2.05e7,2.11e7,inactive
CG10073 (GeneID 37225),1,4.65e7,5.42e7,1.95e7,2.49e7,inactive
kek5 (GeneID 32930),1,4.76e7,6.61e7,2.32e7,2.60e7,inactive
CG7016 (GeneID 42968),1,3.59e7,2.50e7,1.65e7,1.19e7,inactive
beat-VII (GeneID 43213),1,6.02e7,3.84e7,2.21e7,2.07e7,inactive
beat-VII (GeneID 43213),2,2.38e7,3.97e7,1.29e7,1.77e7,inactive
beat-VII (GeneID 43213),3,2.47e7,3.82e7,1.29e7,1.63e7,inactive
beat-VII (GeneID 43213),4,3.08e7,3.97e7,1.42e7,1.87e7,inactive
CG9921 (GeneID 32599),1,2.54e7,2.62e7,1.40e7,1.48e7,inactive
CG14174 (GeneID 39139),1,2.83e7,4.33e7,1.59e7,2.07e7,inactive
lncRNA:CR30055 (GeneID 10178803),1,3.24e7,3.67e7,1.77e7,1.57e7,inactive
GLaz (GeneID 36447),1,1.69e7,2.06e7,1.03e7,1.14e7,inactive
CG13113 (GeneID 34271),1,3.08e7,4.46e7,1.41e7,1.71e7,inactive
Clbn (GeneID 43018),1,4.17e7,5.22e7,2.23e7,2.03e7,inactive
